PubChem BioAssay AID1159578 – Peter MacCallum Cancer Centre – 2015

Test: 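Genome-wide hunt for genes controlling movement of lymphatic endothelial cells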 (primary screen)
Cell system: human lymphatic endothelial cells
Reagent: siRNA pool against human genes, 40 nM
Timing: 48 h after transfection
Measured: 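Cells stained with dye and imaged after a scratch; covered wound area and nuclei counted, duplicates averaged, migration set against mock wells and turned into a robust z-score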
Direction: migration robust z-score: higher = faster migration into the scratch; migration relative to mock: higher = more scratch area covered than mock; nuclei per well: higher = more cells in the well
Hit rule: 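Pools averaging fewer than 3300 nuclei are never called; remaining pools count as changed when migration robust z lies outside -2 to 2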
Meaning of the calls: active = migration changed; inactive = no migration change, or too few cells
In all, the deposit lists about 18,000 reagents; this is an unselected part. About 1,030 of all reagents (5.7%) were called active. 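Inactive calls also include pools with fewer than 3300 nuclei, whose migration was not assessed.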 Raw values vary from plate to plate and are shown uncorrected. A number with no mark means an inactive call.

Target gene	migration robust z-score	migration class with cell-count check	migration relative to mock	nuclei per well, duplicate mean
ZNF446	-0.12	migration z between -2 and 2; enough cells	0.86	4812
MNAT1	-0.42	migration z between -2 and 2; enough cells	0.72	4687
CEP15	-2.34 (active)	migration z below -2; enough cells	0.29	3474
AP5S1	1.02	migration z between -2 and 2; enough cells	1.16	5467
WDR45	0.5	migration z between -2 and 2; enough cells	1.02	5562
VAMP1	0.82	migration z between -2 and 2; enough cells	1.1	5893
KDM2B	-1.32	migration z between -2 and 2; enough cells	0.55	5198
CXCL3	0.07	migration z between -2 and 2; enough cells	0.9	6153
EMD	0.61	migration z between -2 and 2; enough cells	1.04	5301
PGBD5	-2.39 (active)	migration z below -2; enough cells	0.27	4100
LARS1	-0.76	migration z between -2 and 2; enough cells	0.69	6372
ASPG	0.52	migration z between -2 and 2; enough cells	0.9	6074
DDX6	-0.44	migration z between -2 and 2; enough cells	0.72	5274
SULF1	0.68	migration z between -2 and 2; enough cells	0.94	4606
SLC25A38	1.51	migration z between -2 and 2; enough cells	1.27	4727
NDUFA1	-2	under 3300 nuclei; migration not judged	0.42	3153
GABRG1	-0.31	migration z between -2 and 2; enough cells	0.74	6478
KISS1	-0.33	migration z between -2 and 2; enough cells	0.8	4656
INTS13	0.66	migration z between -2 and 2; enough cells	1.06	4940
TXNRD2	-1.04	under 3300 nuclei; migration not judged	0.6	58
C8orf34	-2.25 (active)	migration z below -2; enough cells	0.29	3824
REX1BD	0.51	migration z between -2 and 2; enough cells	1.02	7330
SNCAIP	0.56	migration z between -2 and 2; enough cells	1.03	4074
GLIS3	1.36	migration z between -2 and 2; enough cells	1.24	4710
SF3B1	-3 (active)	migration z below -2; enough cells	0.1	5720
MYCBPAP	0.66	migration z between -2 and 2; enough cells	1.06	4924
AGR2	2.97 (active)	migration z above 2; enough cells	1.66	6639
SRSF4	0	migration z between -2 and 2; enough cells	0.88	5857
PLPP7	-1.06	migration z between -2 and 2; enough cells	0.6	5452
ERN2	-0.68	migration z between -2 and 2; enough cells	0.68	4415
RABAC1	0.38	migration z between -2 and 2; enough cells	0.99	5795

Entries listed above called active (5):
Target gene	migration robust z-score	migration class with cell-count check	migration relative to mock	nuclei per well, duplicate mean
CEP15	-2.34 (active)	migration z below -2; enough cells	0.29	3474
PGBD5	-2.39 (active)	migration z below -2; enough cells	0.27	4100
C8orf34	-2.25 (active)	migration z below -2; enough cells	0.29	3824
SF3B1	-3 (active)	migration z below -2; enough cells	0.1	5720
AGR2	2.97 (active)	migration z above 2; enough cells	1.66	6639

Next entries follow.
Target gene	migration robust z-score	migration class with cell-count check	migration relative to mock	nuclei per well, duplicate mean
NKAIN3	-0.9	migration z between -2 and 2; enough cells	0.65	3912
THRA	0.34	migration z between -2 and 2; enough cells	0.87	5762
CWC25	0.48	migration z between -2 and 2; enough cells	1.01	5072
RPL7	-0.14	migration z between -2 and 2; enough cells	0.85	3807
PTCHD3	-0.19	migration z between -2 and 2; enough cells	0.84	5990
DAPP1	-0.36	migration z between -2 and 2; enough cells	0.8	5605
KPNA1	-0.05	migration z between -2 and 2; enough cells	0.8	5866
PPP1R36	0.29	migration z between -2 and 2; enough cells	0.96	8166
OCEL1	-0.62	migration z between -2 and 2; enough cells	0.73	6004
CCDC144NL	-0.36	migration z between -2 and 2; enough cells	0.8	4776
MMP2	0.16	migration z between -2 and 2; enough cells	0.84	5752
TXNL1	-0.39	migration z between -2 and 2; enough cells	0.73	6246
OSTN	-0.64	migration z between -2 and 2; enough cells	0.72	5890
HTRA4	0.39	migration z between -2 and 2; enough cells	0.88	5170
SLC10A7	0.39	migration z between -2 and 2; enough cells	0.88	4820
OR6X1	-1.21	migration z between -2 and 2; enough cells	0.57	5520
FABP1	1.61	migration z between -2 and 2; enough cells	1.12	5478
MFNG	-1.38	migration z between -2 and 2; enough cells	0.54	6970
DNAJC13	1.52	migration z between -2 and 2; enough cells	1.28	6678
HAPLN3	-0.16	migration z between -2 and 2; enough cells	0.84	5894
HTATIP2	-0.05	migration z between -2 and 2; enough cells	0.8	5767
TBC1D3G	-0.73	migration z between -2 and 2; enough cells	0.7	6466
GLUD2	-0.28	migration z between -2 and 2; enough cells	0.75	5866
APLNR	0.93	migration z between -2 and 2; enough cells	0.99	4571
DPPA2	1.14	migration z between -2 and 2; enough cells	1.17	6920
STT3B	-1.84	migration z between -2 and 2; enough cells	0.45	4928
